Results on one substance are retold here after PMC9731993.

Protein sequences, listed by entry. Tags and fused reporters are not part of them.
UniProt P10415: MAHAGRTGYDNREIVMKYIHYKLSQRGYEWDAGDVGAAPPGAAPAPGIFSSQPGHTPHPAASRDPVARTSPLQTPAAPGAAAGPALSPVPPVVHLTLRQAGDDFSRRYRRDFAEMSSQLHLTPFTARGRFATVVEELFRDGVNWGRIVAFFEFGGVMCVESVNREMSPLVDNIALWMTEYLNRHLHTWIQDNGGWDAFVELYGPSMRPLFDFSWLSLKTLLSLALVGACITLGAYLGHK

The target in this assay is Beclin-1 (human (endogenous in A2780CP and COC1/DDP)) (UniProt Q14457). Kind of assay: co-IP; endogenous proteins in lysates of A2780CP and COC1/DDP cells, NT control or CUL4A/DDB1 knock-down; interaction of BECN1 with BCL2 and ATG14L; precipitating antibody not stated.

These are yes or no findings as the source states them, for the method shown. Binding seen in cells or lysates may run through a third protein. Some binding calls cover weakened binding; strength is not graded here.

In the case of BCL2 (from UniProt P10415 1-239), the binding entry was “binds”.
